Laboratory results as given in patent US6558650B1, “Enhancement of cellular gallium uptake” (Oregon Health and Science University, priority 1998, dated 2003).
At least one compound was matched to its structure with a doubt left.

System: TfR− and TfR+ cells (Chinese Hamster Ovary)
Test: Cellular uptake of Ga-67, text statements that do not separate TfR− and TfR+ cells
Assay type: cell-based
Excerpt: A pair of transfected Chinese Hamster Ovary cells lines were used to compare, in a controlled manner, the Tf-dependent and Tf-independent systems for the uptake of Ga-67.
The two cell lines are identical except that TfR-cells express no TfR, and TfR+ cells over-express the transfected human TfR constitutively. This means that expression of the TfR is independent of cell growth or iron content, which could alter the cells matabolically in many ways that may confound a well-controlled experimental determination of cause and effect. TfR− and TfR+ cells were grown in monolayer and maintained as previously described (37).
The tube was placed on its side on the surface of a cool, daylight color-balanced, fluorescent light box (Just Normlicht).
The temperature at the surface of the light box was 29° C. for the fluorescent light box, and 37° C. for the UV light box. […] Each 10 ml sample of incubation solution contained an equal quantity of ethanol (approximately 100 µl per 10 ml), including the controls. […]
By a modification of a method previously published for radiolabeling of protozoan parasites (38), the cells were then separated from unbound contaminating radioactivity. […] The content of radioactivity in the samples was determined by a gamma well counting (Packard) in comparison to standard dilutions of the original Ga-67 incubation solution. […]

Structure (SMILES): COCCOC(=O)C1=C(C)NC(C)=C(C(=O)OC(C)C)C1c1cccc([N+](=O)[O-])c1 (centres unmarked) [nimodopine, nimodipine]
- effect on Ga-67 uptake (light-protected compound): None of the light-protected or photo-irradiated compounds had an effect
- effect on Ga-67 uptake (photo-irradiated compound): None of the light-protected or photo-irradiated compounds had an effect
